Measurements published in patent publication US20230235374A1, “High Throughput Assays for Detecting Translation Readthrough Inducers” (The Trustees of the University of Pennsylvania, priority 2021, published 2023).
Several values for one entry are separate records, joined by “and”; a condition that tells them apart may be missing. Identical values can stand only once.

Key:
[1] = tested on: Stop-POST5 complex (RFC-dependent termination); experiment: smTIRF assay of RFC-dependent peptide and tRNA release; type: biochemical, shrimp (Artemia salina)
Description: Immobilization of ribosome Stop-POST 5 complexes. PEGylated flow chambers were incubated in 0.5 mg/ml streptavidin for 5 mins and washed with Buffer 4. Biotinylated Stop-POST5 containing FK(atto647)VRQ-tRNA^Gln (Cy3) in the P-site, was formed at room temperature by incubating Stop-POST4, eEF1A, GTP, and Gln-(Cy3)tRNA^Gln for 5 mins and then injected into the streptavidin-coated slide chamber. After a 5 min incubation, excess unbound ribosome was flowed out. Then eRF1/eRF3±TRIDs was injected dynamically at 3 sec while recording. The injection dead time was subtracted for each particle.
Single-molecule fluorescence imaging. All sm-TIRF studies were carried out at 24° C. […]
Image stacks were recorded at 100 ms frame rate on a custom-built objective-type total internal reflection fluorescence (TIRF) microscope based on a commercial inverted microscope (Eclipse Ti-E, Nikon) and capable of performing alternating-laser excitation (ALEX) between 532 nm and 640 nm laser beams using an acousto-optic tunable filter (AOTF, Chen et al., 2011). For the time-lapse experiment, timing of the movies, programmed into NIS-Elements (Nikon) microscope software, were recorded by illuminating the sample for 50-20 frames at 10 frames per s with 15 s or […] intervening dark intervals. […]

[2] = tested on: rRNA fragments I-IV of Stop-POST5; experiment: RNaseH fragment assay, Stop-POST5; type: binding, shrimp (Artemia salina); settings: fit to eq (1)
Description: RNaseH Fragment Assay. Total RNA was prepared from the ^3H-AzAt photoaffinity labeled ribosome by phenol-chloroform extraction. RNA: DNA duplexes were formed by incubating total RNA (0.2 μM) with an oligonucleotide pair (1 μM of each, sequences shown Table 1), flanking a specific RNA region, in 22.8 μL of water at 95° C. for 2 min, followed by annealing at 50° C. for 30 s and quenching on ice. Six units (1.2 μL) of RNase H (NEB) and 6 μl of 5×RNase H Reaction Buffer were next added to the RNA: DNA duplex and incubated at 37° C. for 1 hour, followed by phenol-chloroform extraction of RNA. The digested RNA was separated on 12% TBE-Urea PAGE gel, and the target band along with the adjacent upper and bottom gels were sliced by a 2 mm gel cutter. […] The slurry was removed by centrifugation and the eluted ^3H labeled rRNA in the supernatant was quantified. The stoichiometry of AzAt photoincorporation was calculated based on a gel recovery yield of 20±2%, determined using an authentic sample of [^3H]-Gln-tRNA^Gln.
Testing the functional pertinence of AzAt photolabeling of 18S A1195, 28S-A3093, 28S-A2672, and 28S-2669. […] These experiments, the results of which are summarized in Table 5, were performed at two different AzAt concentrations. eRF1 and eRF1.eRF3.GDPNP effects were measured using 300 μM AzAt, paralleling the LASER-Seq PAL experiments.

**Q.** How did the “Hill n, inhibition of tRNA release” value ([1]; smTIRF) turn out when `O=C(O)c1cccc(-c2noc(-c3ccccc3F)n2)c1` [Ataluren] was run?
**A.** Its value is 2.7±0.4.

**Q.** What about the “Hill n, inhibition of pentapeptide release” value ([1]; smTIRF and fluorescence anisotropy, FIG. 9H) of the same compound?
**A.** The value was 3.0±0.6.

**Q.** `[N-]=[N+]=Nc1ccc(-c2nc(-c3cccc(C(=O)O)c3)no2)cc1` [AzAt] was tested. Which “Hill n, photoincorporation into Fragments II and III (PTC)” value [2] did it give?
**A.** The value was 3.3 and ~3.
